In article PMC6627288:
For at least one entry, the source does not settle the construct or the ends of the probe. For part of these data: Results from cells or extracts need not show a direct contact. For part of these data: A weaker result is weaker than the reference pair of the same experiment. For part of these data: At least one verdict rests on a figure or table, not on a statement of the authors. For part of these data: Where a protein sequence is shown, tags need not be part of it.

Assays:
[1] = target: HER2 receptor on SK-BR-3 cells (UniProt P04626); assay: TSM acoustic sensor (QCM); conditions: whole SK-BR-3 cells, 5e4 cells/mL, protein on the cell surface, label: 5'-biotin
PTK7 protein = target: T1, PTK7 protein (UniProt Q13308); assay: binding assay; conditions: TSM flow injection on neutravidin/gold; aptamers immobilized in PBS (10 mM NaH2PO4, 1.8 mM KH2PO4, 137 mM NaCl, 2.7 mM KCl, pH 7.4); cells in PBS with DMEM; label: 5'-biotin; single-stranded DNA
T1 sequence (looked up, limits assumed): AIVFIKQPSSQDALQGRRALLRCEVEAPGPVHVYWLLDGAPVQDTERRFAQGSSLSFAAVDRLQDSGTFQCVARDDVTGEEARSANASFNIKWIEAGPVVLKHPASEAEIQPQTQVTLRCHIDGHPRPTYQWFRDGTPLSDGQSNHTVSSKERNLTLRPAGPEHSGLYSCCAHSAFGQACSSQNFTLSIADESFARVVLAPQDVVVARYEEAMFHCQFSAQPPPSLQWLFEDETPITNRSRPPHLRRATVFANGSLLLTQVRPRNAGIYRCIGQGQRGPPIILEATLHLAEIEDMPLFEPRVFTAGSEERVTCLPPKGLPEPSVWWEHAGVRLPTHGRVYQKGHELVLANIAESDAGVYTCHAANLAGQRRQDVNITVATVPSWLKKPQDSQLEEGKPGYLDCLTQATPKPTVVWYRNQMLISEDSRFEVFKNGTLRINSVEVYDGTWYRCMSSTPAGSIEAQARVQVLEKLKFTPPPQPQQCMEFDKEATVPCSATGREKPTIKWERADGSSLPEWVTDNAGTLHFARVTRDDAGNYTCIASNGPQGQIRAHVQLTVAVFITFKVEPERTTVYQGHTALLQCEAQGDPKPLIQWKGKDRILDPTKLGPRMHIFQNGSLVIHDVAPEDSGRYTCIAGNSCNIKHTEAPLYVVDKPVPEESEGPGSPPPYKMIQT

[2] = target: PTK7 receptor on MDA-MB-231 cells (UniProt Q13308); assay: TSM acoustic sensor (QCM); conditions: whole MDA-MB-231 cells, 5e5 cells/mL (Figure S2), 0.5 uM aptamer, binding attributed to PTK7; protein on the cell surface; label: 5'-biotin; single-stranded …
HER2 protein = HER2 protein (UniProt P04626); assay: binding assay; conditions: TSM flow injection on neutravidin/gold; aptamers immobilized in PBS (10 mM NaH2PO4, 1.8 mM KH2PO4, 137 mM NaCl, 2.7 mM KCl, pH 7.4); cells in PBS with DMEM; label: 5'-biotin; single-stranded DNA

AACCGCCCAAATCCCTAAGAGTCTGCACTTGTCATTTTGTATATGTATTTGGTTTTTGGCTCTCACAGACACACTACACACGCACA [HB5]
binding result ([1]; 0.25 uM aptamer, single-stranded DNA): binds

ATCTAACTGCTGCGCCGCCGGGAAAATACTGTACGGTTAGA [sgc8c]
Kd (PTK7 protein): 1 nM | binding result ([1]; non-specific control, 0.5 uM aptamer, much lower response, single-stranded …): binds more weakly | binding result [2]: binds

TCTAAAAGGATTCTTCCCAAGGGGATCCAATTCAAACAGC [HeA2_3]
Kd (HER2 protein): 6.2 nM | binding result ([1]; 0.5 uM aptamer, higher response than HB5, single-stranded DNA): binds
